In patent US20020081266A1, “Spray dried powders for pulmonary or nasal administration” (Norton Healthcare Ltd., priority 1999, published 2002):
At least one structure is not confirmed: it was looked up by name or label, or the drawing left a doubt.

Experiment: Scanning electron microscopy (SEM) particle diameter
Assay type: physicochemical
Source text: Scanning Electron Microscopy (SEM)
The scanning electron microscope used was the Hitachi S-3500N variable pressure scanning electron microscope. Samples were mounted and sputtered with gold spray for SEM.
The scanning electron microscope used was the Hitachi S-3500N variable pressure scanning electron microscope. Samples were mounted on aluminium stubs and spluttered with gold spray for SEM.

CCCC1O[C@@H]2C[C@H]3[C@@H]4CCC5=CC(=O)C=C[C@]5(C)[C@H]4[C@@H](O)C[C@]3(C)[C@]2(C(=O)CO)O1 (some centres unmarked) [Budesonide, budesonide]
Average particle diameter by SEM (spray dried from ethanolic solution (95% ethanol)): 0.5-5 μm | Average particle diameter by SEM (starting material, not spray dried): 0.5-5 μm
